The target in the assay is AXL (endogenous) (human (endogenous in 786-O, 769-P, Caki-1)) (UniProt P30530). The assay can be described thus: affinity purification with mass spectrometry; immunoprecipitation from STAMBPL1 KD 786-O cell lysate (AXL immunoprecipitation complex by results and legend; anti-STAMBPL1 or normal rabbit IgG by the methods), protein A/G magnetic beads, SDS-PAGE, Coomassie, in-gel trypsin digestion, nano-UPLC timsTOF Pro2.

Chains of the proteins cited; added tags and fusions are not shown. Residues count along the entry.
UniProt P30530, residues 26-894: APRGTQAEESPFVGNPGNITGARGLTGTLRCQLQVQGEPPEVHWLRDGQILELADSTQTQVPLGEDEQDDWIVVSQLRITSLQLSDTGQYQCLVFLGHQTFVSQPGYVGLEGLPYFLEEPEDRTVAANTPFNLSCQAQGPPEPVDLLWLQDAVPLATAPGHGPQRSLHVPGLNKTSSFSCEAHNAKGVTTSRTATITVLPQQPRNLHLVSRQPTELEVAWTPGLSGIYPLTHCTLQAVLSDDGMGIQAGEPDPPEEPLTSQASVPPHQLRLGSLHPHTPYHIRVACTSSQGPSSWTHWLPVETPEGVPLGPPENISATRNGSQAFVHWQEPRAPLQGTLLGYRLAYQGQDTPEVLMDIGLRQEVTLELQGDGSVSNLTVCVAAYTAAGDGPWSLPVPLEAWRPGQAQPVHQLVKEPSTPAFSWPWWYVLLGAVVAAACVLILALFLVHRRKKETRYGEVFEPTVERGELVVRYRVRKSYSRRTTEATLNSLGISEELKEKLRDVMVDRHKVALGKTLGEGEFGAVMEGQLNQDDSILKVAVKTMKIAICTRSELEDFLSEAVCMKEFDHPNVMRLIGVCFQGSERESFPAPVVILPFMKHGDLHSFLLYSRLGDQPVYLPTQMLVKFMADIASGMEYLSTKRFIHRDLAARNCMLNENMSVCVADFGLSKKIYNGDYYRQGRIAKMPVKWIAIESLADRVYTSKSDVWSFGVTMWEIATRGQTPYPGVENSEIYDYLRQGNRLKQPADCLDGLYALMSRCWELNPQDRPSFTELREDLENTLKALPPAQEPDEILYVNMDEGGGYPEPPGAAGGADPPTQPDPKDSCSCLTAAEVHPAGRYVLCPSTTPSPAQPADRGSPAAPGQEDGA
UniProt P19474: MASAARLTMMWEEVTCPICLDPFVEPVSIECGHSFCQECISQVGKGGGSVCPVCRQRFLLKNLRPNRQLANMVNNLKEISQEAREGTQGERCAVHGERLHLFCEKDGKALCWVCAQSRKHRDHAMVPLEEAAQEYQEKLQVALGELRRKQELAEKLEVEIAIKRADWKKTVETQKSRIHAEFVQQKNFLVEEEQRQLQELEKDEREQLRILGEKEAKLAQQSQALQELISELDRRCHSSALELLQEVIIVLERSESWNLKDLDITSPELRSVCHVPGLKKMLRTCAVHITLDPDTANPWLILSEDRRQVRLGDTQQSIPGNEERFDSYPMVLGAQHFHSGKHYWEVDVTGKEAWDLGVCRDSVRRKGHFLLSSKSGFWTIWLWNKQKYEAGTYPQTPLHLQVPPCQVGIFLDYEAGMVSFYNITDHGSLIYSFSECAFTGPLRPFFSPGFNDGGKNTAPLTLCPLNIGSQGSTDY
UniProt Q13263: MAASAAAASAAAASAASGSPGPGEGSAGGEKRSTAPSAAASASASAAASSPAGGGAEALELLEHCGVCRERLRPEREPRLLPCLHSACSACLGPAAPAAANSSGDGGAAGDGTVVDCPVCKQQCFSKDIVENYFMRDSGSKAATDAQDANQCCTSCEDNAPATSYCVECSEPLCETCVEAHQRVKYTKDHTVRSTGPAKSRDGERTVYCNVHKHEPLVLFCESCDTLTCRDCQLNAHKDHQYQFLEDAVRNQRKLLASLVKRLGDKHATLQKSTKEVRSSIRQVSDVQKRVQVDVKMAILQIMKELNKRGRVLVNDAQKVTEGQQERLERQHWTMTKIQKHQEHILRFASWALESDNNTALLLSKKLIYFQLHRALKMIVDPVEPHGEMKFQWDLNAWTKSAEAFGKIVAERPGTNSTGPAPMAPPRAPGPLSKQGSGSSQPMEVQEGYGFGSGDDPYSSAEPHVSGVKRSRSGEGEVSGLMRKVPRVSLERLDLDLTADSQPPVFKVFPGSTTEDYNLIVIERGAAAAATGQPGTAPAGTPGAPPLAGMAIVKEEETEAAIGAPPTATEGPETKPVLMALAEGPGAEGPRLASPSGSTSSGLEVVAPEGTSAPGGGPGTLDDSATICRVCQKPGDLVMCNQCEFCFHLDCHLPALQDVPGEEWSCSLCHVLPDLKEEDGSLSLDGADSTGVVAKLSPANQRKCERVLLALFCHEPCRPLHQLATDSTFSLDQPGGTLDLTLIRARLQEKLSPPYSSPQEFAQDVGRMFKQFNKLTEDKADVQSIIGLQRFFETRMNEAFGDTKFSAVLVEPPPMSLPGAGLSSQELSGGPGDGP

Results are given in words; binding and its absence hold for the method and conditions named. Binding seen in cells or lysates may run through a third protein. A yes stands for co-enrichment or nearness to the bait. Other partners may have been found.

For “TRIM21 (endogenous) (from UniProt P19474 1-475) (enzyme)”, the binding entry was “binds”. To “TRIM28 (endogenous) (from UniProt Q13263 1-835) (enzyme)” belongs “binds”.
